The results are deposited in PubChem (AID741; SRMLSC, 2007).

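Difference in dose-response slope between the compound's toxicity and its reversal of drug resistance in MRP-overexpressing cells; the cell line is not named here. The test concentration is not given here. The number is the slope of the toxicity curve minus the slope of the reversal curve, with no unit; a higher value means a more active compound.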

Common to all entries: measured here: slope difference tox minus reversal. Part of the compounds only, not a random draw; the main read-out is not listed here.

Result for CCOC(=O)N1CCC(n2c(SCC(=O)NCc3ccco3)nc3ccsc3c2=O)CC1 was slope difference 1.728.
Result for CC(C)C(=O)N1CCN(c2ccccc2NC(=O)c2cccc(Cl)c2)CC1 was slope difference 0.5432.
Result for C=CCSc1nnc2nc3c(nn12)c1cc(C)ccc1n3CC=C was slope difference 1.558.
Result for CCCNC(=O)c1cc(-c2ccco2)on1 was slope difference 2.063.
Result for Cc1ccc(-c2nc3ncccn3c2NC2CCCC2)o1 was slope difference 1.186.
Result for Cc1ccc(C(=O)CSc2nnc(COc3cccc4cccnc34)o2)cc1 was slope difference 0.0754.
Result for COc1cc(OC)cc(C(=O)Nc2nc3ccccc3[nH]2)c1 was slope difference 0.7244.
Result for CC1CCCN(CC(=O)Nc2ccc(S(=O)(=O)N3CCCCC3)cc2)C1 (stereo not given) was slope difference 0.5835.
Result for Cc1ccc(C)c(Cn2nnc3c(=O)[nH]c(C4CCCN(C(=O)C5CCCCC5)C4)nc32)c1 (stereo not given) was slope difference 1.468.
Result for COc1ccc(C(=O)Nc2ccccc2N2CCN(C(=O)C(C)C)CC2)cc1Cl was slope difference 1.887.
Result for Cn1nnnc1SCC(=O)Nc1ccccc1N1CCOCC1 was slope difference 0.187.
Result for CCOC(=O)C1CCN(Cc2nc3ccccc3c(=O)n2-c2ccc(OCC)cc2)CC1 was slope difference 1.97.
Result for CCN1CCN(c2nc(-c3ccccn3)nc3ccccc23)CC1 was slope difference 0.0871.
Result for CCCCC(C)(O)C/C=C/[C@H]1[C@H](O)CC(=O)[C@@H]1CCCCCCC(=O)OC (stereo not given in full) was slope difference 0.5851.
Result for CC(C)OCCCn1c(=NC(=O)c2ccncc2)c(C#N)cc2c(=O)n3ccccc3nc21 was slope difference 2.015.
Result for O=C(NCc1ccccc1)c1cc(-n2cnnc2)ccc1Cl was slope difference 0.0783.
Result for O=C(NCc1ccc(N2CCCC2=O)cc1)c1cn(CCc2ccccc2)nn1 was slope difference 0.8756.
Result for CNc1nc2c(c(=O)n(C)c(=O)n2C)n1Cc1ccccc1 was slope difference 1.445.
Result for Cn1c(=O)c(NCCO)c2c3c(cccc31)C(=O)c1ccccc1-2 was slope difference 0.3805.
Result for CN(C)c1nc2c(c(=O)n(C)c(=O)n2C)n1Cc1ccccc1 was slope difference 0.4264.
Result for Cn1c(=O)c2c(nc(N3CCCCCC3)n2Cc2cccc3ccccc23)n(C)c1=O was slope difference 1.55.
Result for C=CCn1c(=O)c2c3c(sc2n2c(Nc4ccccc4)nnc12)CCCC3 was slope difference 0.6248.
Result for Cn1c(=N)c(S(=O)(=O)c2ccccc2)cc2c(=O)n3ccccc3nc21 was slope difference 0.9258.
Result for COc1ccc(CN(C(=O)c2ccccc2OC)C2CCS(=O)(=O)C2)cc1 (stereo not given) was slope difference 0.7348.
Result for N#CC1=C(N)N(c2ccc(Br)cc2)C2=C(C(=O)CCC2)C1c1cccnc1 (stereo not given) was slope difference 0.7849.
Result for CCOC(=O)C1C2C=CC3(CN(CCc4ccccc4)C(=O)C13)O2 (stereo not given) was slope difference 0.3732.
Result for COc1ccc(-n2c(SCC(=O)N3CCN(c4ccccc4)CC3)nc3c(c2=O)SCC3)cc1 was slope difference 1.479.
Result for Cc1ccccc1S(=O)(=O)Cc1ccc(C(=O)N2CCN(C3CCCCC3)CC2)o1 was slope difference 0.6203.
Result for O=C(CSc1nnc(COc2ccccc2)o1)c1ccccc1 was slope difference 0.1751.
Result for CCCn1c(C)cc(/C=C(\C#N)C(=O)OCC(=O)NC(=O)NC(C)(C)C)c1C was slope difference 1.262.
Result for CCCNc1nc2c(c(=O)n(C)c(=O)n2C)n1Cc1cccc(C)c1 was slope difference 1.446.
Result for O=C(Nc1ccc(-n2nncc2-c2ccco2)cc1)c1cccc(F)c1 was slope difference 0.4732.
Result for Fc1ccc(C2C3=C(Nc4ncnn42)c2ccccc2OC3c2ccncc2)cc1 (stereo not given) was slope difference 1.229.
Result for Cc1cc(/C=C(\C#N)C(=O)OCC(=O)NC(=O)NC(C)(C)C)c(C)n1CCC(C)C was slope difference 0.4701.
Result for O=C(CSc1nnc(C2CC2)n1Cc1ccccc1)N1CCN(S(=O)(=O)c2ccccc2)CC1 was slope difference 0.757.
Result for O=c1c2c3c(sc2n2cnnc2n1Cc1ccccc1)CN(Cc1ccccc1)CC3 was slope difference 2.31.
Result for CCOC(=O)c1c(NC(=O)OC)sc(C(=O)N(C)C)c1C was slope difference 1.311.
Result for COc1ccc2cc(CCC(C)=O)ccc2c1 was slope difference 0.5152.
Result for CCCC1O[C@@H]2CC3C4CCC5=CC(=O)C=C[C@]5(C)C4C(OC(C)=O)C[C@]3(C)[C@]2(C(=O)COC(C)=O)O1 (stereo not given in full) was slope difference 1.804.
Result for C=CCn1c(SCC(=O)NCc2ccco2)nnc1-c1ccc2ccccc2n1 was slope difference 0.0515.
Result for Cc1nc(N2CCN(S(=O)(=O)c3cccc4nonc34)CC2)c2c3c(sc2n1)CCCC3 was slope difference 1.616.
Result for CC1CN(c2nc(-c3ccccc3)nc3ccccc23)CC(C)O1 (stereo not given) was slope difference 1.467.
Result for Cc1cc(NC(=O)CSc2nnc(-c3ccc4c(c3)OCCO4)o2)no1 was slope difference 0.5845.
Result for Cc1ccc(N=C(NOC(=O)c2ccccc2)c2nonc2N)c(C)c1 was slope difference 0.0146.
Result for Cc1ccc2c(Cl)c(C(=O)NCCCn3ccnc3)sc2c1 was slope difference 1.055.

3 of the entries, repeated:

| Compound | slope difference |
|---|---|
| `Cc1ccc(N=C(NOC(=O)c2ccccc2)c2nonc2N)c(C)c1` | 0.0146 |
| `Cc1ccccc1S(=O)(=O)Cc1ccc(C(=O)N2CCN(C3CCCCC3)CC2)o1` | 0.6203 |
| `Cc1ccc(C(=O)CSc2nnc(COc3cccc4cccnc34)o2)cc1` | 0.0754 |